Test results as given in patent US20170247448A1.
Changes are numbered by the printed parent chain. Results are given in words; binding and its absence hold for the method and conditions named. Some entries that bind do so weakly or less than the wild type. Blank lines part the entries; values can stand above or below the binder they belong to.

How the values were obtained:
[1] = target: T1, Human hepcidin peptide (hepcidin-25) (human); experiment: titration affinity ELISA, plate-bound hepcidin, CHO supernatant
T1 sequence (peptide): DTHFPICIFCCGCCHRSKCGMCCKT

[2] = target: T1, Human hepcidin peptide (hepcidin-25) (human); experiment: titration affinity ELISA
[3] = target: T2, Human hepcidin-20 peptide (hepcidin-20) (human); experiment: Western blot after reducing SDS-PAGE
T2 sequence (peptide): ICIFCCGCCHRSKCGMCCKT

[4] = target: T3, Human hepcidin 22 peptide (hepcidin-22) (human); experiment: Western blot after non-reducing tricine SDS-PAGE
T3 sequence (peptide): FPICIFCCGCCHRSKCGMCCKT

[5] = target: T2, Human hepcidin-20 peptide (hepcidin-20) (human); experiment: Western blot after non-reducing tricine SDS-PAGE
MAb 583 = experiment: competition ELISA on MAb 583 coated plate; competitor NT-biotin hepcidin-25
BAP070-hum03 [6] = experiment: C-ELISA on goat anti-human Fc coat, hepcidin titrated against a labelled tracer not named for this figure; the signal falls as hepcidin occupies the antibody
BAP070-hum01 [7] = experiment: as above
BAP070-hum06 [8] = experiment: as above
BAP070-hum02 [9] = experiment: as above
BAP070-hum04 [10] = experiment: as above
BAP070-hum05 [11] = experiment: as above
BAP070-hum03 [12] = experiment: anti-human Fc coated c-ELISA, antibody 30 ng/well (title of the figure), hepcidin titrated against a labelled tracer not named for this figure; same data as FIG. 20A
BAP070-hum01 [13] = experiment: as above
BAP070-hum06 [14] = experiment: as above
BAP070-hum02 [15] = experiment: as above
BAP070-hum04 [16] = experiment: as above
BAP070-hum05 [17] = experiment: as above

B1: BAP070-hum01 (antibody, IgG1, V domains shown)
VH: QVQLVQSGAEVKKPGASVKVSCKASGYTFTNYGMNWVRQARGQRLEWIGWINTYTGEPTYADDFKGRLTISKDTSKNQVVLTMTNMDPVDTATYYCTTYATSWYWGQG
VL: DIQMTQSPSSLSASVGDRVTITCRASESVDSYGNSFMHWYQQKPGQAPRLLIYRASNLESGVPSRFSGSGSGTDFTFTISSLQPEDIATYYCQQSNEDLTFG
- binding [1]: binds
- binding [2]: binds

B2: BAP070-hum03 (antibody, IgG1, V domains shown)
VH: QVQLVQSGAEVKKPGASVKVSCKASGYTFTNYGMNWVRQATGQGLEWMGWINTYTGEPTYADDFKGRFVFSLDTSVSTAYLQICSLKAEDTAVYYCTTYATSWYWGQG
VL: B1 VL with D1A, M4L
- binding [1]: binds
- binding [2]: binds

B3: BAP070-hum04 (antibody, V domains shown)
VH: B1 VH
VL: AIQLTQSPSSLSASVGDRVTITCRASESVDSYGNSFMHWFQQRPGQSPRRLIYRASNLESGIPPRFSGSGYGTDFTLTINNIESEDAAYYFCQQSNEDLTFG
- binding [1]: binds
- binding [2]: binds

B4: BAP070-hum05 (antibody, IgG1, V domains shown)
VH: EVQLVQSGAEVKKPGESLRISCKGSGYTFTNYGMNWIRQPPGKGLEWIGWINTYTGEPTYADDFKGRVTISADKSISTAYLQWSSLKASDTAMYYCTTYATSWYWGQG
VL: B1 VL
- binding [1]: binds
- binding [2]: binds

B5: BAP070-hum02 (antibody, IgG1, V domains shown)
VH: B1 VH
VL: AIQLTQSPSSLSASVGDRVTITCRASESVDSYGNSFMHWYQQKPGKAPKLLIYRASNLESGIPARFSGSGSGTEFTLTISSLQSEDFAVYYCQQSNEDLTFG
- binding [1]: binds
- binding [2]: binds

The next lines start with the values.

- binding [1]: binds
- binding [2]: binds
B6: BAP070-hum06 (antibody, IgG1, V domains shown)
VH: B4 VH
VL: B1 VL with D1A, M4L

- binding [3]: binds
- binding [4]: binds
- binding [5]: binds
B7: MAb 583 (antibody, V domains shown)
VH: QIQLVQSGPELKKPGETVKISCKASGYTFTNYGMNWVKQAPGKGLKWMGWINTYTGEPTYADDFKGRFAFSLETSASTAYLQINNLKNEDTATYFCTTYATSWYWGQG
VL: DIVLTQSPASLAVSLGQRATISCRASESVDSYGNSFMHWYQQKPGQPPKLLIYRASNLESGIPARFSGSGSRTDFTLTINPVEADDVATYYCQQSNEDLTFG

- binding (MAb 583): binds
Binder: ICIFCCGCCHRSKCGMCCKT [Human hepcidin-20 peptide (hepcidin-20)]

- binding (BAP070-hum03 [6]): binds
- binding (BAP070-hum01 [7]): binds
- binding (BAP070-hum06 [8]): binds
- binding (BAP070-hum02 [9]): binds
- binding (BAP070-hum04 [10]): binds
- binding (BAP070-hum05 [11]): binds
- binding (BAP070-hum03 [12]): binds
- binding (BAP070-hum01 [13]): binds
- binding (BAP070-hum06 [14]): binds
- binding (BAP070-hum02 [15]): binds
- binding (BAP070-hum04 [16]): binds
- binding (BAP070-hum05 [17]): binds
- binding (MAb 583): binds
Binder: DTHFPICIFCCGCCHRSKCGMCCKT [Human hepcidin peptide (hepcidin-25)]

- binding (MAb 583): binds
Binder: FPICIFCCGCCHRSKCGMCCKT [Human hepcidin 22 peptide (hepcidin-22)]
